3 molecules from paper PMC7801388 can be followed below.

Sequences of proteins named here, by UniProt entry; tags and fusion partners are left off.
UniProt P35222: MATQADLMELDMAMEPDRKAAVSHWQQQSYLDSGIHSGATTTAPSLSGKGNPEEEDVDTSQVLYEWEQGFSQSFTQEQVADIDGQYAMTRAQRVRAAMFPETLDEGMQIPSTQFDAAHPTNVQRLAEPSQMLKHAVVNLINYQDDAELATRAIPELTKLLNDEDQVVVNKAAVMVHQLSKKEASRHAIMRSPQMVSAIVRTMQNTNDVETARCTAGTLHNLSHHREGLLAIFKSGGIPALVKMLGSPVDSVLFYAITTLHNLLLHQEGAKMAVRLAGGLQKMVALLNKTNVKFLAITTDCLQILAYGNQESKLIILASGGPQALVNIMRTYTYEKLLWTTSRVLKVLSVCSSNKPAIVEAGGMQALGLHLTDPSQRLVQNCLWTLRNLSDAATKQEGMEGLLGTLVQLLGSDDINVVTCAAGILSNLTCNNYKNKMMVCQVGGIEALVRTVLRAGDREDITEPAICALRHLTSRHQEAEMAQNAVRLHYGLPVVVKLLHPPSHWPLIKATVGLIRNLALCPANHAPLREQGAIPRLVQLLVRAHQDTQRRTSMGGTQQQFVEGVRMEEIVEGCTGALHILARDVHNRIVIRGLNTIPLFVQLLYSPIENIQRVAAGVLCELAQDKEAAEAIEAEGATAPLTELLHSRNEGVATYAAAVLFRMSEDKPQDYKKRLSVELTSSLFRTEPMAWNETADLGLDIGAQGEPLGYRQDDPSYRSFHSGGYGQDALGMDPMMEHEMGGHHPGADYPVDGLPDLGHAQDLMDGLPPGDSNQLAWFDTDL
UniProt P49841: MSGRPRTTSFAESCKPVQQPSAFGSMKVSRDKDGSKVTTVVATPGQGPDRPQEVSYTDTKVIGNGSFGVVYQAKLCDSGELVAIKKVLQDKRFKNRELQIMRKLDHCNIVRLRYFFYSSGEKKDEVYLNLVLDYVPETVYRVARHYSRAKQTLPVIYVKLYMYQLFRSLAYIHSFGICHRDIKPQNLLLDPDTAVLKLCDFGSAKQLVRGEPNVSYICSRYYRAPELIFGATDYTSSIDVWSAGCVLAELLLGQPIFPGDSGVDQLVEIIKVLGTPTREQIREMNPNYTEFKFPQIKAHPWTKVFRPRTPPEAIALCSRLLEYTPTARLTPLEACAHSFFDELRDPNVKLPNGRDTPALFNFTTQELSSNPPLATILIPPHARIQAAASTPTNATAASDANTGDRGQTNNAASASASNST
UniProt Q9Y297: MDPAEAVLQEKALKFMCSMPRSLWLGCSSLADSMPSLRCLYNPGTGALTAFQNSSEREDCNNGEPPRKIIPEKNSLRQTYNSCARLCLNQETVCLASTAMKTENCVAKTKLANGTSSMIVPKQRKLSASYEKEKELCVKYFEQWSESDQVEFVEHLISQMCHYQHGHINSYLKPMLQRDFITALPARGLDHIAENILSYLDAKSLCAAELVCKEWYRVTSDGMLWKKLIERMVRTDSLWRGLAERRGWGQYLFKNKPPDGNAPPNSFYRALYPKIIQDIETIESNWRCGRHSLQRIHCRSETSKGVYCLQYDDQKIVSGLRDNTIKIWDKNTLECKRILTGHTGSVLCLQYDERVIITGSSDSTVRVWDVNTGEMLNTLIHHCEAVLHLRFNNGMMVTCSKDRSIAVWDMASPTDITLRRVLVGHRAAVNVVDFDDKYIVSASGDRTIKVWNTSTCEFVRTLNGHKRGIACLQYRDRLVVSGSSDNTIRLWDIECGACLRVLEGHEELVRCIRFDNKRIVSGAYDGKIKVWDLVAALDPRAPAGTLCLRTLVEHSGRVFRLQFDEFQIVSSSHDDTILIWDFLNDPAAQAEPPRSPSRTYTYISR
UniProt Q9UNE7: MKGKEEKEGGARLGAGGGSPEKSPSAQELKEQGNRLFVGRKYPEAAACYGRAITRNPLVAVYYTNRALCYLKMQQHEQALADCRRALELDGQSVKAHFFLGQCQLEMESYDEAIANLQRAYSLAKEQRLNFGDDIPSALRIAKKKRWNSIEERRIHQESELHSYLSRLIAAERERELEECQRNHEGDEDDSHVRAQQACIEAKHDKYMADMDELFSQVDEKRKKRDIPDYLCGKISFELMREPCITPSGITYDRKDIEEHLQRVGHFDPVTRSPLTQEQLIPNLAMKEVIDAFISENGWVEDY
UniProt Q9UJU2: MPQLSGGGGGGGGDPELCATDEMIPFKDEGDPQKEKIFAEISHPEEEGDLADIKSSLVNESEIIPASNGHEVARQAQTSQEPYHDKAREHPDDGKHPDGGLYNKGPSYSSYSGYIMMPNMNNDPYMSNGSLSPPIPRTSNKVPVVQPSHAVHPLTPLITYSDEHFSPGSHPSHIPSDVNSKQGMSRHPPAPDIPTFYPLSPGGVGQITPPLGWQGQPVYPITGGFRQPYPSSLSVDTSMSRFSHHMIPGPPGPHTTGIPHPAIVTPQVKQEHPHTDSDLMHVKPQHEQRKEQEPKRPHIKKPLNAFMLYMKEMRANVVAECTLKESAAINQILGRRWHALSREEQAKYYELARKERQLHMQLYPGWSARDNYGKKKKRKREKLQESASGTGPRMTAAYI

Like-named read-outs stand apart in the source and are kept apart here. These are yes or no findings as the source states them, for the method shown. In cells and extracts the contact can be indirect. Some entries that bind do so weakly or less than the wild type. For some of these results: Where a sequence is shown, tags or fusion partners need not be part of it.

The target of experiment [1] is Flag-β-catenin (human (A549 cDNA)) (UniProt P35222). Kind of experiment: co-IP; HEK293T cells co-transfected with Flag- and HA-tagged plasmids; whole-cell lysates in low-salt lysis buffer (50 mM Hepes pH 7.5, 150 mM NaCl, 1% Triton X-100) incubated with anti-Flag agarose overnight at 4 °C, blotted with anti-HA; in Fig. 5 also with Myc-CHIP or Myc-CHIP T246M, CHIP siRNA, Wnt3a (40 ng/ml, 1 h).

Experiment [2] deals with Flag-GSK3β (glycogen synthase kinase 3) (human (A549 cDNA)) (UniProt P49841). Described as above.
The target in experiment [3] is T1, Flag-Arc (activity-regulated cytoskeleton-associated protein) (human (A549 cDNA)) (UniProt Q7LC44).
T1 sequence: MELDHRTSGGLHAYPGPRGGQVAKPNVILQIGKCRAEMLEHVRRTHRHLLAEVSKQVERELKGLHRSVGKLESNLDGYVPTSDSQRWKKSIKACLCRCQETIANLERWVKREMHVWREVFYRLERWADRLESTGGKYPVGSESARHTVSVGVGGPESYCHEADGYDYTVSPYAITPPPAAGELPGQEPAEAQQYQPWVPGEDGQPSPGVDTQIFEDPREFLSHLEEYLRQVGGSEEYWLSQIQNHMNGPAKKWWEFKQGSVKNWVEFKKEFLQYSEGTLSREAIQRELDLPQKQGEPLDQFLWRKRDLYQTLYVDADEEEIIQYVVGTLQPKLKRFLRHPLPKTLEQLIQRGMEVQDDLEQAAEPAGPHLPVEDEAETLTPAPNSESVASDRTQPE
Described as above.

Experiment [4] deals with Flag-β-TrCP (human (A549 cDNA)) (UniProt Q9Y297). The description is as above.
In experiment [5] the target is β-catenin (endogenous) (human (endogenous in SHSY5Y)) (UniProt P35222). Nature of the experiment: co-IP; endogenous proteins of SHSY5Y cells; lysate incubated with indicated antibodies overnight at 4 °C, Dynabeads protein G 2 h; cells transfected with CHIP, CHIP T246M or CHIP siRNA.
In experiment [6] the target is Flag-CHIP (human (A549 cDNA)) (UniProt Q9UNE7). Nature of the experiment: co-IP; HEK293T cells co-transfected with Flag- and HA-tagged plasmids; whole-cell lysates in low-salt lysis buffer (50 mM Hepes pH 7.5, 150 mM NaCl, 1% Triton X-100) incubated with anti-Flag agarose overnight at 4 °C, blotted with anti-HA; in Fig. 5 also with Myc-CHIP or Myc-CHIP T246M, CHIP siRNA, Wnt3a (40 ng/ml, 1 h).

For experiment [7], the target named is Flag-GSK3β (glycogen synthase kinase 3) (human (A549 cDNA)) (UniProt P49841). The experiment is described as above. This is another data set of the same source.

As to “HA-CHIP (carboxyl terminus of Hsc70-interacting protein) (from UniProt Q9UNE7 1-303) (enzyme)”, the binding entry in experiment [1] is “binds weakly”; in experiment [2], “binds”; in experiment [3] it was “binds”; in experiment [4], “binds weakly”.

On to “LEF1 (endogenous) (from UniProt Q9UJU2 1-399)”, for which the binding entry in experiment [5] was “binds”.

B1: HA-Arc (protein, UniProt Q7LC44 1-396)
chain: T1 sequence
B1: the binding entry in experiment [6] and in experiment [7] was “binds” each time.
